Data as given in PubChem BioAssay AID590 (National Center for Advancing Translational Sciences (NCATS), 2007).
“And” between values parts separate entries of the source, which are not always exact repeats. Identical values can stand only once. Among all 59,000 compounds or so, about 6,500 (11%) were called active. The inconclusive results got no clear call from the source; some entries with a clear call stand among them for comparison. No stated cut-off is given here; in the data, active means max dye-equivalent concentration above about 10 nM; inconclusive means mostly about 1.1 nM to 9.6 nM; inactive means weaker than that. More than one record can exist for a structure, and the calls need not agree.

Experiment: qHTS Assay for Spectroscopic Profiling in A350 Spectral Region
Conditions: Compound autofluorescence, 340/450 nm, Alexa 350 dye-equivalents; hits give high values

SMILES	max dye-equivalent concentration	outcome
Cc1ccc(C)n1-c1ccncc1	inactive	–
CCOC(=O)c1c(NC(=O)c2nn(CC)cc2Br)sc2c1CCCCC2	active: 1.8e-07 M	–
CCN(CC)CCOC(=O)c1cc(Cl)c(N)cc1OC	active: 3.1e-08 M	–
S[C@@H]1CCCN(Cc2ccccc2)C1	inconclusive: 1.4e-09 M	–
Cc1ccc(N(C=NC#N)CC(=O)N2CCN(c3ccccc3)CC2)cc1	inactive	–
COc1ccc(OC)c(NC(=O)CN2CCN(C(=O)c3ccco3)CC2)c1	inconclusive: 1.4e-09 M	–
CC1(C)Cc2c(c(-c3ccccc3)[nH]c(=O)c2C#N)CS1	active: 1.5e-08 M	–
CC1CC(C)CN(c2ncc3c(n2)CC(c2ccccc2)CC3=O)C1 (stereo not drawn)	inconclusive: 5.7e-09 M	–
Cc1cc2oc(=O)cc(Cn3ccnc3)c2cc1C	inconclusive: 4.7e-09 M	–
COC(=O)N1CCC2(CC1)CCN(c1ccncc1)CC2	inactive	–
CCC(=O)Nc1ccc(NC(=O)c2c(C)nc3ccccn23)cc1	inactive	–
Cc1cc(Cc2cc(C)c(N)cc2N)c(N)cc1N	active: 2.5e-08 M	–
COc1cccc2cc(NC(=O)C3CCCCC3)c(=O)oc12	inconclusive: 7.2e-09 M	–
CN(C1CCS(=O)(=O)C1)S(=O)(=O)c1ccc(N2CCCC2=O)cc1 (stereo not drawn)	inactive	–
CCCCOc1nc2ccccc2nc1C(C#N)S(=O)(=O)c1ccccc1 (stereo not drawn)	active: 4.9e-08 M	–
Cc1cc(C#N)c2ccccc2n1	inconclusive: 2.2e-09 M	–
CC1CCN(C(=O)c2ccc(N(C)S(C)(=O)=O)cc2)CC1	inconclusive: 3.7e-09 M	–
O=c1c(-c2ccc3c(c2)OCCO3)coc2cc(O)cc(O)c12	inactive	–
C=CCn1c(SC2CCOC2=O)nc2scc(C3CC3)c2c1=O (stereo not drawn)	inactive	–
C=CCNc1nnc(C)c2ccccc12	inactive	–
O=C(CSc1nnc(-c2cccnc2)n1Cc1ccco1)c1ccc(Cl)c(Cl)c1	inconclusive: 2.8e-09 M	–
COc1ccc(CC2C(=O)OC(C)(C)OC2=O)cc1	inconclusive: 3.3e-09 M	–
CCSc1sccc1C1C(C#N)=C(N)N(c2cccnc2)C2=C1C(=O)CCC2 (stereo not drawn)	inconclusive: 2.7e-09 M	–
COCCN1CCn2c(nc3cc(NC(=O)c4ccc(OC)cc4)ccc32)C1	active: 1.7e-08 M	–
COc1ccc(C2C(C(=O)Nc3ccccc3OC)=C(C)Nc3nnnn32)c(OC)c1 (stereo not drawn)	inactive	–

SMILES	max dye-equivalent concentration	outcome
CC(C)[N+](C)(CCOC(=O)C1c2ccccc2Oc2ccccc21)C(C)C	inconclusive: 4.1e-09 M	–
O=C(Nc1ccccc1C(=O)OCn1nnc2ccccc2c1=O)c1ccco1	inconclusive: 1.2e-09 M	–
CC(C)Oc1ccccc1-c1nc(SCC(=O)O)n[nH]1	inactive	–
CCn1c2ccccc2c2nnc(SCC(=O)NCc3cccs3)nc21	inactive	–
CN(C)Cc1ccccc1-c1cncnc1Nc1ccncc1	inconclusive: 2.7e-09 M	–
COc1ccc(-c2cc3nc(C)cc(C)n3n2)c(OC)c1	active: 1e-08 M	–
Cc1cc(=O)[nH]c(SCc2nc3ccccc3n2Cc2ccccc2)n1	inconclusive: 6e-09 M	–
FC(F)(F)c1nnc2sc(-c3ccco3)nn12	inconclusive: 1.4e-09 M	–
CS/C(=N\S(=O)(=O)c1cccs1)NC(=O)CSc1nc2ccccc2s1	inactive	–
O=C(O)CCc1ccc(-c2ccccc2)[nH]1	active: 5e-08 M	–
O=C(O)C(c1ccccc1)N1CCCC1 (stereo not drawn)	inactive	–
O=C(NCCN1CCOCC1)c1cc2c(=O)n3ccccc3nc2n1Cc1ccccc1	inconclusive: 3.3e-09 M	–
COC(=O)c1ccc2c(c1)N(Cc1nc(-c3ccc(Cl)cc3)oc1C)C(=O)C1CCCN21 (stereo not drawn)	inconclusive: 6e-09 M	–
Cc1ccc2c(c1C)NC(C(=O)O)C1CC=CC21 (stereo not drawn)	inconclusive: 4.3e-09 M	–
COc1ccc(-n2c(C)cc(C(=O)COc3ccc(-n4cnnn4)cc3)c2C)cc1	inconclusive: 1.4e-09 M	–
COc1ccc(-c2cc(C(F)(F)F)n3ncc(C(=O)O)c3n2)cc1OC	inconclusive: 7.1e-09 M	–
CC(C)(C)c1cc(NC(=O)c2cccnc2)no1	inactive	–
Nc1ccccc1S(N)(=O)=O	active: 3.6e-08 M	–
CC1=Nn2c(nnc2-c2ccccc2Cl)SC1	inconclusive: 1.8e-09 M	–
CC1CCC(NC(=O)c2cc3c(s2)CS(=O)(=O)C3)CC1 (stereo not drawn)	inactive	–
N#CC1=C(N)C(C#N)(C#N)C(c2cccnc2)C2COCC=C12 (stereo not drawn)	inconclusive: 3.3e-09 M	–
CCOc1ccccc1-n1c(SCC(N)=O)nnc1-c1cccnc1	inconclusive: 3.9e-09 M	–
Cc1ccccc1CN1CCN(C(=O)c2cccc(F)c2)CC1	inactive	–
c1ccc(CCNc2nc3ccccc3n3nnnc23)cc1	inconclusive: 2.6e-09 M	–
Cc1cc(C)n(-c2ccc(C(=O)Nc3sccc3C(N)=O)cc2)n1	active: 2.6e-08 M	–

SMILES	max dye-equivalent concentration	outcome
Cc1cc(C)nc(N2CCC(C(=O)NCC3CCCCC3)CC2)n1	inactive	–
COc1ccccc1NC(=O)N(Cc1ccco1)Cc1cc2ccc(C)c(C)c2[nH]c1=O	inactive	–
CC[C@@]12CCCN3CCc4c(n(c5ccccc45)C(=O)C1)[C@H]32	active: 6.9e-08 M	inactive
COc1ccc(-c2ccc(-c3nnc(-c4ccncc4)o3)cc2)cc1	inactive	–
COCCNc1nc(-c2ccccc2Cl)nc2ccccc12	inactive	–
c1cncc(CNc2nc(-c3cccnc3)nc3ccccc23)c1	inactive	–
O=C(O)CCSCc1ccc(I)cc1	inactive	–
COc1cc(NC(=O)Cc2ccc(Cl)cc2)ccc1NC(=O)c1ccco1	inconclusive: 9.9e-09 M	–
Cc1ccc2[nH]c(=O)c(CN(CCc3ccccc3)C(=O)N3CCOCC3)cc2c1	inconclusive: 9.9e-09 M	–
OCCN1CCN(CC/C=C2\c3ccccc3Sc3ccc(C(F)(F)F)cc32)CC1	inactive	–
CCCOC(=O)c1cc(=O)[nH]c2ccccc12	active: 6.9e-08 M and active: 5.2e-08 M	–
C[C@@H]1Cc2ccccc2N1NC(=O)c1ccc(Cl)c(S(N)=O)c1 (stereo partly drawn)	inconclusive: 3.5e-09 M	–
COc1ccc(-c2c3c(=O)n(C)c(=O)n(C)c3cn2NC(C)=O)cc1	active: 2.6e-06 M	–
CN1CCN(c2ncc3nc(CCc4ccccc4)c(=O)n(CCc4ccccc4)c3n2)CC1	inactive	–
COc1ccc2nc3oc(C(=O)N4CCN(c5ccccc5F)CC4)cc3cc2c1	active: 1.9e-08 M	–
COc1c(S(=O)(=O)N2CCCCC2)ccc2c(S(=O)(=O)N3CCCCC3)cccc12	inactive	–
CC1(C)Cn2c(nnc2-c2cccc(O)c2)S1	inactive	–
O=C(CSc1ncccc1C(=O)O)NCCC1=CCCCC1	inconclusive: 1.5e-09 M	–
O=C(c1cnccn1)N1CCC2(CCCN(Cc3ccncc3)C2)CC1	inactive	–
CC1(C)C(=O)Nc2ccccc2N1C(=O)CN1C(=O)c2ccccc2C1=O	active: 1e-08 M	–
N#CCCn1c2ccccc2c2nc3ccccc3nc21	active: 6.7e-08 M	–
CC(C)[C@H](NC(=O)C1(c2ccccc2)CCN(C(=O)OC(C)(C)C)CC1)C(=O)O	inconclusive: 1.7e-09 M	–
CC1CN(c2nc3ccccc3nc2C(C#N)C(=O)NC2CCCCC2)CC(C)O1 (stereo not drawn)	inconclusive: 9.9e-09 M	–
CSc1cccc(NC(=O)CSc2ccccc2)c1	inactive	–

SMILES	max dye-equivalent concentration	outcome
CCOC(=O)c1cc2nc(Nc3ccc(OC)cc3)sc2s1	inconclusive: 2.3e-09 M	–
N#C/C(Cn1c[n+](NC(=O)Nc2ccccc2)cn1)=N/O	inconclusive: 1.1e-09 M	–
C=CCn1c(=S)[nH]c2nc3c(cc2c1=O)CCCC3	inconclusive: 4.2e-09 M	–
COc1cc2c(cc1OC)CN(C(=O)CCCN1C(=O)c3ccccc3C1=O)CC2	inconclusive: 1.1e-09 M	–
COC(=O)CSc1nnc2n(-c3ccc(OC)cc3)c(=O)c3c4c(sc3n12)CCCCC4	active: 2.5e-08 M	–
Cc1nn(CCCNC(=O)C2CCCO2)cc1Br (stereo not drawn)	inactive	–
Cc1cc2cc3c(cc2nc1SCC(=O)O)OCCO3	inconclusive: 9.3e-09 M	–
C=CCSc1nnc(NC(=O)c2ccc(S(=O)(=O)NCC3CCCO3)cc2)s1 (stereo not drawn)	inconclusive: 1.3e-09 M	–
COc1cc(-c2noc(-c3cccs3)n2)cc(OC)c1OC	inconclusive: 1.1e-09 M	–
COC(=O)c1[nH]c2cccc(Cl)c2c1NC(=O)CN(C)C1CCCCC1	inconclusive: 1.8e-09 M	–
COc1ccc(C=Nc2c(O)ccc3ccccc23)cc1OC	inconclusive: 9.7e-09 M	–
CCOc1ccc2nc(C(C)O)[nH]c2c1 (stereo not drawn)	active: 1.7e-08 M	–
COc1ccc(CN2C(=O)CCC2(C)C(=O)NCc2cccnc2)c(OC)c1 (stereo not drawn)	inconclusive: 2.9e-09 M	–
c1ccc2[nH]c(CSc3nnc(-c4ccncc4)o3)nc2c1	inconclusive: 9e-09 M	–
COC(=O)c1cc(Br)c(=O)n(-c2ccccn2)c1	inconclusive: 1.2e-09 M	–
COc1ccc(-n2c(CNC(=O)c3ccc(S(=O)(=O)N4CCCC4)cc3)n[nH]c2=S)cc1	inconclusive: 2.7e-09 M	–
COc1cccc(COc2nc3c(c(=O)n(C)c(=O)n3C)n2C)c1	inconclusive: 1.3e-09 M	–
COC(=O)C1=C(N)OC2=C(C(=O)CC(C)(C)C2)C1c1ccoc1 (stereo not drawn)	inactive	–
CCOc1ccccc1C1C(C(=O)OC)=CN(C)C=C1C(=O)OC	active: 1.3e-05 M	–
O=C(NCCCN1CCCC1=O)Nc1ccc(Cl)cc1	inactive	–
CC(=O)c1c(NCCc2ccccc2)cc(C)oc1=O	inconclusive: 1.4e-09 M	–
N#Cc1cccc(-c2nc(NCc3ccccc3)c3ccccc3n2)c1	inactive	–
